Record: PubChem BioAssay AID1259424 (University of Nebraska Medical Center, 2018)
Aim: 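Seek colon cancer survival genes behaving like KSR1, using a six-gene signature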 (primary screen). Cells: human HCT116 colon cancer cells. Knock-down reagent: siRNA pool against human genes, 50 nM. Detection: 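Six signature mRNAs by branched-DNA multiplex assay, scaled to two housekeeping genes and non-targeting median, log2; matched to mean KSR1 knockdown profile by Pearson correlation and euclidean distance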. Direction: mean correlation with KSR1 profile and KSR1 correlation: higher = expression change more like KSR1 knockdown; mean distance from KSR1 profile: higher = expression change less like KSR1 knockdown.
The deposit covers about 14,000 reagents; below is a part drawn at random. 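Higher correlation or smaller distance means closer resemblance to KSR1 loss; control wells, including KSR1 knockdowns, recur on many plates.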 Not given: the time to read-out.

| gene knocked down | mean correlation with KSR1 profile | mean distance from KSR1 profile | KSR1 correlation, replicate 1 | KSR1 correlation, replicate 2 | KSR1 correlation, replicate 3 |
| --- | --- | --- | --- | --- | --- |
| EPB41L4A (erythrocyte membrane protein band 4.1 like 4A) | -0.301 | 2.45 | -0.642 | -0.221 | 0.237 |
| LTA4H (leukotriene A4 hydrolase) | 0.306 | 0.956 | 0.652 | 0.0377 | -0.397 |
| MAPKAPK2 (MAPK activated protein kinase 2) | 0.244 | 2.23 | 0.349 | 0.376 | 0.127 |
| ITLN1 (intelectin 1) | -0.0587 | 3.77 | -0.169 | 0.0687 | 0.00791 |
| FMNL1 (formin like 1) | -0.467 | 3.75 | -0.526 | -0.582 | -0.461 |
| PCDHB10 (protocadherin beta 10) | 0.728 | 1.96 | 0.692 | 0.818 | 0.303 |
| SLC12A9 | 0.602 | 2.29 | 0.271 | 0.758 | 0.781 |
| CEP83 (centrosomal protein 83) | -0.724 | 2.62 | -0.621 | -0.633 | -0.725 |
| TBC1D24 (TBC1 domain family member 24) | -0.799 | 2.26 | -0.808 | -0.759 | -0.845 |
| SH3BGRL (SH3 domain binding glutamate rich protein like) | -0.0814 | 2.08 | 0.0207 | -0.172 | -0.0372 |
| CASP5 (caspase 5) | -0.12 | 1.94 | -0.172 | -0.126 | -0.0506 |
| DOK2 (docking protein 2) | -0.247 | 2.57 | -0.15 | -0.309 | -0.281 |
| TATDN1 (TatD DNase domain containing 1) | 0.827 | 2.88 | 0.747 | 0.774 | 0.885 |
| TAL2 (TAL bHLH transcription factor 2) | 0.541 | 1.87 | 0.46 | 0.462 | 0.546 |
| NEFH (neurofilament heavy chain) | -0.0166 | 2.31 | 0.04 | -0.00283 | 0.0412 |
| PARD3 (par-3 family cell polarity regulator) | 0.48 | 1.31 | 0.519 | 0.429 | 0.214 |
| TNFSF4 (TNF superfamily member 4) | 0.0807 | 0.968 | 0.463 | -0.527 | -0.387 |
| FSCN3 (fascin actin-bundling protein 3) | 0.343 | 1.94 | 0.614 | 0.226 | 0.133 |
| SOX1 (SRY-box transcription factor 1) | -0.496 | 4.14 | -0.533 | -0.526 | -0.376 |
| SNX16 (sorting nexin 16) | -0.681 | 3.11 | -0.581 | -0.758 | -0.698 |
| TIMM8B (translocase of inner mitochondrial membrane 8 homolog B) | -0.0921 | 3.17 | -0.151 | -0.389 | -0.245 |
| TNFRSF6B (TNF receptor superfamily member 6b) | 0.289 | 2.53 | 0.197 | 0.307 | 0.324 |
| FGL2 (fibrinogen like 2) | -0.398 | 2.14 | -0.268 | -0.588 | -0.247 |
| MTA1 (metastasis associated 1) | -0.335 | 2.59 | -0.427 | -0.433 | -0.12 |
| HIGD1A (HIG1 hypoxia inducible domain family member 1A) | 0.449 | 1.95 | 0.515 | 0.217 | 0.725 |
| PIP4K2C (phosphatidylinositol-5-phosphate 4-kinase type 2 gamma) | 0.951 | 2.64 | 0.879 | 0.941 | 0.79 |
| XDH (xanthine dehydrogenase) | -0.127 | 5.1 | -0.224 | -0.16 | -0.133 |
| APBB1IP | 0.313 | 2.8 | 0.326 | 0.644 | 0.212 |
| AGPAT4-IT1 (AGPAT4 intronic transcript 1) | -0.496 | 2.69 | -0.353 | -0.166 | -0.711 |
| DUSP23 (dual specificity phosphatase 23) | -0.132 | 1.49 | -0.243 | -0.0443 | -0.191 |
| ZMYM6 (zinc finger MYM-type containing 6) | -0.317 | 1.72 | -0.212 | -0.38 | -0.129 |
| TCF7L2 (transcription factor 7 like 2) | 0.844 | 1.25 | 0.896 | 0.828 | 0.711 |
| TUBB1 (tubulin beta 1 class VI) | 0.0059 | 2.01 | 0.0793 | 0.0123 | -0.263 |
| EDN2 (endothelin 2) | -0.499 | 4.15 | -0.425 | -0.586 | -0.649 |
| CABP2 (calcium binding protein 2) | 0.347 | 1.51 | 0.272 | 0.451 | 0.488 |
| GFM2 (GTP dependent ribosome recycling factor mitochondrial GFM2) | 0.768 | 1.17 | 0.568 | 0.645 | 0.861 |
| ECH1 (enoyl-CoA hydratase 1) | 0.669 | 2.21 | 0.74 | 0.608 | 0.728 |
| NOS2 (nitric oxide synthase 2) | 0.0189 | 1.95 | -0.0347 | 0.413 | -0.445 |
| OTP (orthopedia homeobox) | 0.0733 | 2.62 | -0.036 | -0.0342 | 0.143 |
| ZMYM2 (zinc finger MYM-type containing 2) | -0.0299 | 1.76 | -0.00338 | 0.03 | -0.199 |
| ABCF3 (ATP binding cassette subfamily F member 3) | -0.0562 | 3.46 | -0.18 | 0.102 | -0.00015 |
| ZFY (zinc finger protein Y-linked) | -0.212 | 3.52 | -0.0328 | -0.211 | -0.0715 |
| MAGT1 (magnesium transporter 1) | 0.822 | 1.12 | 0.662 | 0.742 | 0.867 |
| BMP4 (bone morphogenetic protein 4) | 0.736 | 1.19 | 0.78 | 0.768 | 0.713 |
| HELZ2 (helicase with zinc finger 2) | -0.448 | 1.21 | -0.114 | -0.605 | -0.358 |
| KIF5A (kinesin family member 5A) | -0.564 | 1.86 | -0.644 | -0.658 | -0.261 |
| PPM1B (protein phosphatase, Mg2+/Mn2+ dependent 1B) | -0.0657 | 3.35 | -0.0162 | -0.159 | -0.157 |
| PCDHB2 (protocadherin beta 2) | 0.00639 | 1.36 | -0.141 | 0.109 | -0.35 |
| MAN1C1 (mannosidase alpha class 1C member 1) | -0.151 | 3.32 | -0.338 | 0.0503 | 0.227 |
| GNL1 (G protein nucleolar 1) | -0.159 | 1.88 | -0.233 | -0.09 | -0.346 |

Sorted by “KSR1 correlation, replicate 2” (lowest first): some entries from above
| gene knocked down | mean correlation with KSR1 profile | mean distance from KSR1 profile | KSR1 correlation, replicate 1 | KSR1 correlation, replicate 2 | KSR1 correlation, replicate 3 |
| --- | --- | --- | --- | --- | --- |
| SNX16 (sorting nexin 16) | -0.681 | 3.11 | -0.581 | -0.758 | -0.698 |
| FGL2 (fibrinogen like 2) | -0.398 | 2.14 | -0.268 | -0.588 | -0.247 |
| SOX1 (SRY-box transcription factor 1) | -0.496 | 4.14 | -0.533 | -0.526 | -0.376 |
| MTA1 (metastasis associated 1) | -0.335 | 2.59 | -0.427 | -0.433 | -0.12 |
| TIMM8B (translocase of inner mitochondrial membrane 8 homolog B) | -0.0921 | 3.17 | -0.151 | -0.389 | -0.245 |
| FSCN3 (fascin actin-bundling protein 3) | 0.343 | 1.94 | 0.614 | 0.226 | 0.133 |
| TNFRSF6B (TNF receptor superfamily member 6b) | 0.289 | 2.53 | 0.197 | 0.307 | 0.324 |
